The text below walks through data of US8828401B2 (Pfizer Inc., priority 2011, dated 2014).

The nature of this data set: general procedure: solution-phase peptide synthesis; HATU.
Where [1] appears, read: late stage modification step, HPLC (Protocol A).
The mark [2] stands for this setting: coupling step, HPLC (Protocol A).

Take “tert-butyl (2S)-2-{[(2S)-1-{[(3R,4S,5S)-3-methoxy-1-{(2S)-2-[(1R,2R)-1-methoxy-2-methyl-3-oxo-3-{[(1S)-2-phenyl-1-(1,3-thiazol-2-yl)ethyl]amino}propyl]pyrrolidin-1-yl}-5-methyl-1-oxoheptan-4-yl](methyl)amino}-3-methyl-1-oxobutan-2-yl]carbamoyl}”: the step yield (coupling step) was 62%. Moreover, the “final HPLC purity” value (coupling step, HPLC Protocol V) is 95%.
As to “methyl N-{(2R,3R)-3-methoxy-3-[(2S)-1-{(3R,4S,5S)-3-methoxy-5-methyl-4-[methyl(N-{[(2S)-2-methylpiperidin-2-yl]carbonyl}-L valyl)amino]heptanoyl}pyrrolidin-2-yl]-2-methylpropanoyl}-L-phenylalaninate, trifluoroacetic acid salt”, the “final HPLC purity” value (coupling step, HPLC (Protocol A), TFA salt) was greater than 99%. Besides, the step yield (coupling step, TFA salt) was 49%.
“N-[(9H-fluoren-9-ylmethoxy)carbonyl]-N,2-dimethylalanyl-N-[(3R,4S,5S)-1-{(2S)-2-[(1R,2R)-2-carboxy-1-methoxypropyl]pyrrolidin-1-yl}-3-methoxy-5-methyl-1-oxoheptan-4-yl]-N-methyl-L-valinamide” gave a step yield (coupling step) of 92%.
In turn, “N-[(9H-fluoren-9-ylmethoxy)carbonyl]-N,2-dimethylalanyl-N-[(3R,4S,5S)-3-methoxy-1-{(2S)-2-[(1R,2R)-1-methoxy-2-methyl-3-oxo-3-(pentafluorophenoxy)propyl]pyrrolidin-1-yl}-5-methyl-1-oxoheptan-4-yl]-N-methyl-L-valinamide” displayed a step yield (late stage modification step) of 92%.
“N-[5-(2,5-dioxo-2,5-dihydro-1H-pyrrol-1-yl)pentanoyl]-N,2-dimethylalanyl-N-{(1S,2R)-4-{(2S)-2-[(1R,2R)-3-{[(1S)-1-carboxy-2-phenylethyl]amino}-1-methoxy-2-methyl-3-oxopropyl]pyrrolidin-1-yl}-2-methoxy-1-[(1S)-1-methylpropyl]-4-oxobutyl}-N-methyl-L-valinamide” displayed a conjugation yield (conjugation step) of 3.3%. The “final HPLC purity” value (conjugation step, HPLC (Protocol A)) is greater than 97%.
Consider “N-[(3R,4S,5S)-3-methoxy-1-{(2S)-2-[(1R,2R)-1-methoxy-2-methyl-3-oxo-3-{[(1S)-2-phenyl-1-(1,3-thiazol-2-yl)ethyl]amino}propyl]pyrrolidin-1-yl}-5-methyl-1-oxoheptan-4-yl]-N-methyl-L-valinamide”, for which the step yield (late stage modification step) stood at 30%.
On to “2-methylalanyl-N-[(3R,4S,5S)-3-methoxy-1-{(2S)-2-[(1R,2R)-1-methoxy-2-methyl-3-{[(1S)-2-phenyl-1-(1,3-thiazol-2-yl)ethyl]amino}-3-thioxopropyl]pyrrolidin-1-yl}-5-methyl-1-oxoheptan-4-yl]-N-methyl-L-valinamide”, for which the step yield (late stage modification step) stood at 60%. Moreover, the “final HPLC purity” value under setting [1] is greater than 75%.
In the case of “2-methyl-D-prolyl-N-[(3R,4S,5S)-3-methoxy-1-{(2S)-2-[(1R,2R)-1-methoxy-3-{[(2S)-1-methoxy-1-oxo-3-phenylpropan-2-yl]amino}-2-methyl-3-oxopropyl]pyrrolidin-1-yl}-5-methyl-1-oxoheptan-4-yl]-N-methyl-L-valinamide”, the step yield (coupling step) came out at 54%. Besides, the “final HPLC purity” value under setting [2] is greater than 98%.
For “N-[(9H-fluoren-9-ylmethoxy)carbonyl]-N,2-dimethylalanyl-N-[(3R,4S,5S)-3-methoxy-1-{(2S)-2-[(1R,2R)-1-methoxy-2-methyl-3-oxo-3-{[(2S)-1-oxo-1-(pentafluorophenoxy)-3-phenylpropan-2-yl]amino}propyl]pyrrolidin-1-yl}-5-methyl-1-oxoheptan-4-yl]-N-methyl-L-valinamide”, the step yield (late stage modification step) turned out to be 74%.
Take “N^2-[(3-aminooxetan-3-yl)carbonyl]-N-{(3R,4S,5S)-3-methoxy-1-[(2S)-2-{(1R,2R)-1-methoxy-2-methyl-3-oxo-3-[(2-phenylethyl)amino]propyl}pyrrolidin-1-yl]-5-methyl-1-oxoheptan-4-yl}-N-methyl-L-valinamide, acetic acid salt”: the step yield (late stage modification step, over two steps, acetic acid salt) is reported as 26%, over two steps.
“2-methylalanyl-N-{(3R,4S,5S)-1-[(2S)-2-{(3R,4R,7S)-7-benzyl-4-methyl-18-[(4S,5R)-5-methyl-2-oxoimidazolidin-4-yl]-5,8,13-trioxo-2-oxa-6,9,12-triazaoctadecan-3-yl}pyrrolidin-1-yl]-3-methoxy-5-methyl-1-oxoheptan-4-yl}-N-methyl-L-valinamide”: the step yield (late stage modification step) is reported as 50%.
Turning to “N-[(9H-fluoren-9-ylmethoxy)carbonyl]-N,2-dimethylalanyl-N-[(3R,4S,5S)-1-{(2S)-2-[(1R,2R)-3-{[(1S)-1-carboxy-2-phenylethyl]amino}-1-methoxy-2-methyl-3-oxopropyl]pyrrolidin-1-yl}-3-methoxy-5-methyl-1-oxoheptan-4-yl]-N-methyl-L-valinamide”, the step yield (coupling step) was determined as 41%.
On to “2-methylalanyl-N-[(3R,4S,55)-1-{(2S)-2-[(1R,2R)-3-{[2-(cyclohepta-2,4,6-trien-1-yl)ethyl]amino}-1-methoxy-2-methyl-3-oxopropyl]pyrrolidin-1-yl}-3-methoxy-5-methyl-1-oxoheptan-4-yl]-N-methyl-L-valinamide”, for which the step yield (late stage modification step) is reported as 85%.
The substance “1,2-dimethyl-L-prolyl-N-[(3R,4S,5S)-3-methoxy-1-{(2S)-2-[(1R,2R)-1-methoxy-3-{[(2S)-1-methoxy-1-oxo-3-phenylpropan-2-yl]amino}-2-methyl-3-oxopropyl]pyrrolidin-1-yl}-5-methyl-1-oxoheptan-4-yl]-N-methyl-L-valinamide” had a step yield (coupling step) of 41%. The “final HPLC purity” value under setting [2] is recorded as 100%.
On to “N-{(2R,3R)-3-methoxy-3-[(2S)-1-{(3R,4S,5S)-3-methoxy-5-methyl-4-[methyl(N-{[(2R)-2-methylpiperidin-2-yl]carbonyl}-L-valyl)amino]heptanoyl}pyrrolidin-2-yl]-2-methylpropanoyl}-L-phenylalanine, trifluoroacetic acid salt”, for which the step yield (late stage modification step) turned out to be 68%. For the same substance, the “final HPLC purity” value (late stage modification step, HPLC Protocol U) was 98%.
Turning to “N-[6-(2,5-dioxo-2,5-dihydro-1H-pyrrol-1-yl)hexanoyl]-L-valyl-N-(4-{(6S,9R,10R)-6-benzyl-10-[(2S)-1-{(3R,4S,5S)-4-[(1,2-dimethyl-L-prolyl-L-valyl)(methyl)amino]-3-methoxy-5-methylheptanoyl}pyrrolidin-2-yl]-9-methyl-3,8-dioxo-2,11-dioxa-4,7-diazadodec-1-yl}phenyl)-N˜5˜-carbamoyl-L-ornithinamide”, the conjugation yield (conjugation step) is on record as 45%.
With “methyl N-{(2R,3R)-3-[(2S)-1-{(3R,4S,5S)-4-[(N-{[(3R)-3-fluoropyrrolidin-3-yl]carbonyl}-L-valyl)(methyl)amino]-3-methoxy-5-methylheptanoyl}pyrrolidin-2-yl]-3-methoxy-2-methylpropanoyl}-L-phenylalaninate, trifluoroacetic acid salt [#172]”, the step yield (late stage modification step, run 1) amounted to 51%.
For the substance “2-methyl-L-prolyl-N-[(3R,4S,5S)-3-methoxy-1-{(2S)-2-[(1R,2R)-1-methoxy-2-methyl-3-oxo-3-{[(1S)-2-phenyl-1-(1,3-thiazol-2-yl)ethyl]amino]propyl}pyrrolidin-1-yl}-5-methyl-1-oxoheptan-4-yl]-N-methyl-L-vaLinamide, trifluoroacetic acid salt”, where the note is “coupling step”, the step yield is 56%. The “final HPLC purity” value under setting [2] is greater than 98%.
Where the note is “late stage modification step”, “2-methylalanyl-N-[(3R,4S,5S)-1-{(2S)-2-[(1R,2R)-3-{[1-(bicyclo[4.2.0]octa-1,3,5-trien-7-yl)-2-methoxy-2-oxoethyl]amino}-1-methoxy-2-methyl-3-oxopropyl]pyrrolidin-1-yl}-3-methoxy-5-methyl-1-oxoheptan-4-yl]-N-methyl-L-valinamide” returned a step yield of 73%.
Where the note is “coupling step”, “methyl N-{(2R,3R)-3-[(2S)-1-{(3R,4S,5S)-4-[(N-{[(2S)-1-(tert-butoxycarbonyl)-2-methylpiperidin-2-yl]carbonyl}-L-valyl)(methyl)amino]-3-methoxy-5-methylheptanoyl}pyrrolidin-2-yl]-3-methoxy-2-methylpropanoyl}-L-phenylalaninate” came in with a step yield of 39%.
In turn, “tert-butyl (2R)-2-{[(2S)-1-{[(3R,4S,5S)-3-methoxy-1-{(2S)-2-[(1R,2R)-1-methoxy-2-methyl-3-oxo-3-{[(1S)-2-phenyl-1-(1,3-thiazol-2-yl)ethyl]amino}propyl]pyrrolidin-1-yl}-5-methyl-1-oxoheptan-4-yl](methyl)amino}-3-methyl-1-oxobutan-2-yl]carbamoyl}” displayed a step yield (coupling step) of 37%. Besides, for the setting “coupling step, HPLC Protocol W”, the “final HPLC purity” value amounted to 95%.
As for “N-(tert-butoxycarbonyl)-N,2-dimethylalanyl-N-[(3R,4S,5S)-3-methoxy-1-{(2S)-2-[(1R,2R)-1-methoxy-2-methyl-3-oxo-3-{[(1S)-2-phenyl-1-(1,3-thiazol-2-yl)ethyl]amino}propyl]pyrrolidin-1-yl}-5-methyl-1-oxoheptan-4-yl]-N-methyl-L-valinamide”, where the note is “coupling step”, the step yield is given as 50%.
Turning to “N^2-[(1-aminocyclopentyl)carbonyl]-N-[(3R,4S,5S)-3-methoxy-1-{(2S)-2-[(1R,2R)-1-methoxy-2-methyl-3-oxo-3-{[(1S)-2-phenyl-1-(1,3-thiazol-2-yl)ethyl]amino}propyl]pyrrolidin-1-yl}-5-methyl-1-oxoheptan-4-yl]-N-methyl-L-valinamide”, the step yield (late stage modification step) amounted to 96%.
For the substance “2-methylalanyl-N-[(3R,4S,5S)-1-{(2S)-2-[(1R,2R)-3-{[(1S,2R)-1-hydroxy-1-phenylpropan-2-yl]amino}-1-methoxy-2-methyl-3-oxopropyl]pyrrolidin-1-yl}-3-methoxy-5-methyl-1-oxoheptan-4-yl]-N-methyl-L-valinamide”, the step yield (late stage modification step) amounted to 51%. In addition, under setting [1], the “final HPLC purity” value was greater than 90%.
As to “2-methylalanyl-N-[(3R,4S,5S)-3-methoxy-1-{(2S)-2-[(1R,2R)-1-methoxy-3-{[(2S)-1-methoxy-1-oxo-3-phenylpropan-2-yl]amino}-2-methyl-3-thioxopropyl]pyrrolidin-1-yl}-5-methyl-1-oxoheptan-4-yl]-N-methyl-L-valinamide, hydrochloride salt”, the step yield (late stage modification step, hydrochloride salt) is given as 70%.
